# Results of single-concentration screens

The chains behind the UniProt entries cited, without tags or fusion partners. Residues count along the entry.
UniProt P9WPC5, whole entry: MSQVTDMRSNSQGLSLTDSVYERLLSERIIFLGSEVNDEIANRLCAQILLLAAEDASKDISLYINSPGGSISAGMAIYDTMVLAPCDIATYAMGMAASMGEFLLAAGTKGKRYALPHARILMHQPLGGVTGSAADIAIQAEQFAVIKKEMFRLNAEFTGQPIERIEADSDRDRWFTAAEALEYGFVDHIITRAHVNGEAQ
UniProt P9WPC3, whole entry partner: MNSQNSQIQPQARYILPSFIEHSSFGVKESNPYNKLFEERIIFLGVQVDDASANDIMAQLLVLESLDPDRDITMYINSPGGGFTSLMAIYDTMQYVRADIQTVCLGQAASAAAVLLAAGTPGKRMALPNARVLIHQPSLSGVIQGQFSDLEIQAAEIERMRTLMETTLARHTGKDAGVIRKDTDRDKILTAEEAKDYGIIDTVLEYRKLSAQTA
UniProt Q8IDJ8, 1-583: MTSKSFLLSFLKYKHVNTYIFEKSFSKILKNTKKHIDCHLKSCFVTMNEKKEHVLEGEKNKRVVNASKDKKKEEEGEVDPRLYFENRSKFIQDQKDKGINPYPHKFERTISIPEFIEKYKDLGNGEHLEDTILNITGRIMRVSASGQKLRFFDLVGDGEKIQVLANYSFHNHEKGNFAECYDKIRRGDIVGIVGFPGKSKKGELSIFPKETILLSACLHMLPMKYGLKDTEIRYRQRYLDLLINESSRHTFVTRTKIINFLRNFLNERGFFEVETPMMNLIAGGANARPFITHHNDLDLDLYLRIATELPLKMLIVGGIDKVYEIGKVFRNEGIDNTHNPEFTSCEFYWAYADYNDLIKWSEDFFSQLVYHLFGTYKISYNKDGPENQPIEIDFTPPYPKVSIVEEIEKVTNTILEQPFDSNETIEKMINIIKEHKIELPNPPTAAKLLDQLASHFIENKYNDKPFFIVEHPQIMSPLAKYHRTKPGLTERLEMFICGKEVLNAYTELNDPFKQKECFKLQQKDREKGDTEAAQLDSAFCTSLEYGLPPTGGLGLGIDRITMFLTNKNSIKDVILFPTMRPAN
UniProt P9WFT3, whole entry: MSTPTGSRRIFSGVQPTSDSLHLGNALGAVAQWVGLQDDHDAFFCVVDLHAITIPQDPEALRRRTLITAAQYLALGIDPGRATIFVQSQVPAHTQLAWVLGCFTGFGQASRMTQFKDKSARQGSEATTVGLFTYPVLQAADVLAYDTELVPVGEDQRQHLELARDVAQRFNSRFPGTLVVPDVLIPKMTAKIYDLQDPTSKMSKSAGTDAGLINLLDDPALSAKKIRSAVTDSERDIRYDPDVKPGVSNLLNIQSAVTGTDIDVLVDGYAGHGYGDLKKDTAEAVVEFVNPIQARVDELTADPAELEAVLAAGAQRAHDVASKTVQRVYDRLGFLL
UniProt A4I591, 1-473: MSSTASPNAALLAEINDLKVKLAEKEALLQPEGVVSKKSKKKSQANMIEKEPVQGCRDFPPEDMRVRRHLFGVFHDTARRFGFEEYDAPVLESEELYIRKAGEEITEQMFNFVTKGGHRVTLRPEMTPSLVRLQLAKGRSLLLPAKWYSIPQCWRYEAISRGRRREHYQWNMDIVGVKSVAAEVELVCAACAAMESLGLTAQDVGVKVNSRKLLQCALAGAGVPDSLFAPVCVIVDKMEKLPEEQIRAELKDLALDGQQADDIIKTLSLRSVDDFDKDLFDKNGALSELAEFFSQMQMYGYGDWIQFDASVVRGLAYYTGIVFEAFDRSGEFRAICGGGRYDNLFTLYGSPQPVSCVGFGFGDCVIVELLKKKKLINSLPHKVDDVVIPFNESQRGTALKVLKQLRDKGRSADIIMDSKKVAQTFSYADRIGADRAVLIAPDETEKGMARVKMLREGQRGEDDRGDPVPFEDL
UniProt Q4DA54, 1-478: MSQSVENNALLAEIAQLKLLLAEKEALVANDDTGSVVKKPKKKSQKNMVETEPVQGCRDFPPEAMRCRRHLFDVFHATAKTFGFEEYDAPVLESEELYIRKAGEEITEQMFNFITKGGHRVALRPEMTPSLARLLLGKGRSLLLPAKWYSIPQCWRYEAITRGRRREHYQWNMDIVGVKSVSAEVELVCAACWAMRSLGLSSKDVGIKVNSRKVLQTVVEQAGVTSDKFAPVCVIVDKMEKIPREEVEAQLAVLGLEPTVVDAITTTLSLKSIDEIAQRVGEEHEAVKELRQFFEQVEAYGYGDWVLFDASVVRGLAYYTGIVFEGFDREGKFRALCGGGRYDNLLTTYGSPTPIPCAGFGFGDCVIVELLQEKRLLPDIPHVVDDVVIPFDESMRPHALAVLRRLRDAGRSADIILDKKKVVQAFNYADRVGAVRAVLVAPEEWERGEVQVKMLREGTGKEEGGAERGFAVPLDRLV

The values are deposited in ChEMBL (CHEMBL3988442, “University of Dundee, Small-Polar-MMV Screening Library” (2021)).

ClpP1P2: 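ClpP1P2, Mycobacterium tuberculosis (UniProt P9WPC5 and UniProt P9WPC3). Protease assay of ClpP1P2, read by the AMC dye that it sets free. Tested at 50 µM. Direction is inferred from only a few compounds that gave an IC50; most scored high, so higher reads as stronger inhibition. Most other retested compounds had strongly negative values. Of about 69,000 compounds tested this way, about 10 (0.015%) reached 50% or more in at least one test.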
PfKRS1: 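Enzyme assay of the cytosolic lysyl-tRNA synthetase in 384-well plates, read by luminescence. Target: Lysine-tRNA ligase, Plasmodium falciparum 3D7 (UniProt Q8IDJ8). Concentration: 30 µM. Higher reads as stronger inhibition, judged from the few compounds that gave an IC50. Size under these conditions: about 69,000 compounds, about 49 of them at 50% or above in at least one test.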
MtTrpRS: 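Enzyme assay of tryptophanyl-tRNA synthetase; the read-out is not stated. Target: Tryptophan-tRNA ligase, Mycobacterium tuberculosis (UniProt P9WFT3). Concentration: 10 µM. Higher most likely means stronger inhibition; the record gives no direction and few retests gave an IC50. Size under these conditions: about 65,000 compounds, about 64 of them at 50% or above in at least one test.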
LiHisRS: 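Enzyme assay of histidyl-tRNA synthetase; the read-out is not stated. Target: Histidine-tRNA ligase, Leishmania infantum (UniProt A4I591). Tested at 30 µM. The record gives no direction; compounds that gave an IC50 in retests scored well above the rest, so higher reads as stronger inhibition. The assay is labelled LdHisRS but filed under L. infantum. About 69,000 compounds were tested under these conditions; 0.6% (about 410) showed 50% or more at least once.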
TcHisRS: 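Histidine-tRNA ligase, Trypanosoma cruzi CL Brener (UniProt Q4DA54). Enzyme assay of histidyl-tRNA synthetase; the read-out is not stated. Tested at 30 µM. Direction is inferred from retests: higher values go with stronger inhibition. About 69,000 compounds were tested under these conditions; 0.045% (about 31) showed 50% or more at least once.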
Leishmania in macrophages: 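Cell assay of Leishmania donovani living inside macrophages; the read-out is not stated. Compounds at 30 µM. Direction is inferred from retests: higher values go with stronger inhibition. Size under these conditions: about 69,000 compounds, about 1,000 of them at 50% or above in at least one test.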

The filed quantity is “Percent Effect” (%).
The controls that fix the scale are not given in the record; negative values are as filed.
This is an unselected part of the compounds tested.
Two or more numbers in one place are separate tests of the same structure; such repeats can differ widely.
A dash means the value is not listed here; it may have been measured.

Compound,ClpP1P2,PfKRS1,MtTrpRS,LiHisRS,TcHisRS,Leishmania in macrophages
CCNC(=O)CN(CC)C(=O)c1cccc(Nc2cnn(C)c2)c1,13.37,-4.573,4.16,15,-4.545,-0.2779
Cn1cc(C(=O)Nc2cccc(-c3ccc4c(c3)CCO4)n2)ccc1=O,0.6843,-5.551,11.66,0.5236,6.952,17.14
O=C([C@@H]1C[C@@H]2CCN(C3CCOCC3)C[C@H]2O1)N1CCCC1,-10.85,-1.296,-3.358,6.944,2.804,-
O=S(=O)(N[C@@H]1CCO[C@]2(CCN(CC3CCOCC3)C2)C1)C1CC1,1.451,0.4266,-1.273,-7.071,3.226,-
COc1ccc(CC(=O)N2CCC(c3n[nH]c(C4CC4)n3)CC2)cc1,-3.964,1.494,-0.6388,16.13,16.09,20.62
O=C(O)C(F)(F)F.O=C(O)C(F)(F)F.[H][C@@]12OCCN(CC3CC3)[C@@]1([H])CC[C@H]2OCCCn1cccn1,-,-,-,-,-,10.5
CC(C)c1nnc(CN2C(=O)OC[C@@H]2C(C)C)o1,-11.26,-1.673,-0.2075,16,12.05,20.19
CC1CN(S(=O)(=O)c2cc(S(C)(=O)=O)ccc2Br)c2cccnc2O1 (centres unmarked),-5.938,6.415,2.103,24.68,5.419,36.29
Cn1cc(N2CC3(CCN(S(=O)(=O)C4CC4)C3)CC2=O)cn1 (centres unmarked),10.42,5.221,-4.302,13.21,1.622,4.008
COCCCC1(CO)CCCN(Cc2nccs2)C1 (centres unmarked),-1.719,-0.9691,-4.541,2.5,6.579,9.351
Cn1cc(S(=O)(=O)NCCc2nnc3ccccn23)cn1,-3.536,6.538,-0.3666,14.29,1.961,13.61
CN(C)C(=O)c1nnn(-c2ccc(Br)cc2)n1,-1.368,0.9456,21.88,19.18,6,-0.3251
COCCN1CCN(Cc2nc(-c3ccoc3)no2)CC1,-7.222,-3.736,0,-2.439,1.442,8.156
O=C(CN1CCOc2ccccc2C1)NCc1cc2n(n1)CCNC2,0.791,-1.14,-4.231,7.292,0.5525,5.311
CCC(=O)N(CC)CCc1nccs1,-3.163,-0.4798,2.477,3.175,-4.615,27.91
[H][C@@]12CCCN1C[C@@H](CCSC)N(Cc1coc3ccc(Cl)cc3c1=O)C2,-,-,-,-,-,16.86
Cc1nnc(C(NS(=O)(=O)c2cc(C#N)ccc2C)C(C)C)[nH]1 (centres unmarked),3.28,7.918,-1.709,11.71,6.667,-5.421
O=C(c1ccc(-n2ccnc2)cc1)N1CCN(c2cnccn2)CC1,0.2898,7.221,-1.947,11.69,6.404,11.58
COc1cccc2c1OCC(Cc1ccc(N)nc1C)C2 (centres unmarked),19.88,5.37,-2.083,12.9,5.699,17.61
COc1ccccc1N1CCC(N2CCOC(C(F)(F)F)C2)CC1 (centres unmarked),-1.127,8.116,1.475,11.43,-18.56,26.93
[H][C@]12CN(S(C)(=O)=O)CCN1C[C@H](c1ccccc1)[C@H]2C(=O)OCC,-,-,-,-,-,-6.176
c1cncc(OC[C@]23COC[C@H]2CN(C2CCOCC2)C3)c1,-7.678,5.286,-,19.23,7.263,-
[H][C@@]12CN(Cc3ccc(C)c(F)c3F)C[C@]1(C(=O)O)CN(CC1CC1)C2=O,-,-,-,-,-,-0.7593
Cc1ccc(CNC(=O)CN2CCCC(Cn3cncn3)C2)s1 (centres unmarked),9.464,3.936,-1.605,28.38,-3.396,9.838
CC(=O)N1CCCc2ccc(S(=O)(=O)N3CCCCC3C)cc21 (centres unmarked),-23.5,5.276,-0.7524,4.8,-0.9804,28.64
O=C([C@H]1COC[C@H]2CN(C3CCOCC3)C[C@H]21)N1CCCCO1,-6.044,5.852,-3.81,13.89,0.4975,-
O=C(O)C(F)(F)F.[H][C@@]12C[C@@H](c3nc(C)no3)O[C@]1([H])CN(Cc1scnc1C)C2,-,-,-,-,-,-9.907
O=S(=O)(c1ccc(Cl)cc1)N1CCN(CCCn2ccnc2)CC1,-7.967,1.101,-1.847,-9.836,4.651,11.27
c1cc(CC2CCCNC2)nc(NCCc2cnccn2)c1 (centres unmarked),8.647,0.04292,-1.302,31.21,17.05,-
CCCn1nc2c(cc1=O)CN(Cc1nnc(C3CC3)o1)CC2,0.2291,-4.278,-4.287,24.53,6.667,-35.99
CN(Cc1ccccc1)C(=O)CN1CCCC1c1cnn(C)c1 (centres unmarked),-16.46,-2.24,-2.897,11.29,4.124,25.86
CCCc1nc(C)cc(NCc2ccc(S(N)(=O)=O)cc2)n1,2.509,3.074,-7.204,18.18,3.483,15.76
COCCN1CCO[C@@H]2CN(C(=O)Cc3ccc(F)cc3)CC[C@@H]2C1,5.727,0.88,-5.489,14,11.49,-
CC(C)c1ncc(-c2cc(C3CCC3)nc(N)c2C#N)cn1,-99.92,1.713,4.516,9.574,7.071,33.99
CCOCC(=O)NCC1Cn2nnc(-c3cccc(F)c3)c2CO1 (centres unmarked),5.366,7.506,2.116,-557.1,-187.2,14.78
COCCN1CCN(C(=O)c2ccccc2C(C)=O)[C@H]2CS(=O)(=O)C[C@H]21,-4.439,3.22,-2.825,16.44,2.703,-
Cn1ccnc1CN1CCC(c2nc3ccccc3n2C)CC1,1.659,2.85,1.111,12.82,8.434,-8.629 & 12.11

Once more, the final 3:

{"compound": "CCOCC(=O)NCC1Cn2nnc(-c3cccc(F)c3)c2CO1", "stereo": "centres unmarked", "ClpP1P2": 5.366, "PfKRS1": 7.506, "MtTrpRS": 2.116, "LiHisRS": -557.1, "TcHisRS": -187.2, "Leishmania in macrophages": 14.78}
{"compound": "COCCN1CCN(C(=O)c2ccccc2C(C)=O)[C@H]2CS(=O)(=O)C[C@H]21", "ClpP1P2": -4.439, "PfKRS1": 3.22, "MtTrpRS": -2.825, "LiHisRS": 16.44, "TcHisRS": 2.703}
{"compound": "Cn1ccnc1CN1CCC(c2nc3ccccc3n2C)CC1", "ClpP1P2": 1.659, "PfKRS1": 2.85, "MtTrpRS": 1.111, "LiHisRS": 12.82, "TcHisRS": 8.434, "Leishmania in macrophages": "-8.629 & 12.11"}